According to article PMC5833424:
No constants are given. Whether binding was seen depends on the method and setting. Binding seen in cells or lysates may run through a third protein. Some results given as binding are weak or reduced against the parent protein; the word gives no strength.

The chains behind the UniProt entries cited, without tags or fusion partners.
UniProt P11309: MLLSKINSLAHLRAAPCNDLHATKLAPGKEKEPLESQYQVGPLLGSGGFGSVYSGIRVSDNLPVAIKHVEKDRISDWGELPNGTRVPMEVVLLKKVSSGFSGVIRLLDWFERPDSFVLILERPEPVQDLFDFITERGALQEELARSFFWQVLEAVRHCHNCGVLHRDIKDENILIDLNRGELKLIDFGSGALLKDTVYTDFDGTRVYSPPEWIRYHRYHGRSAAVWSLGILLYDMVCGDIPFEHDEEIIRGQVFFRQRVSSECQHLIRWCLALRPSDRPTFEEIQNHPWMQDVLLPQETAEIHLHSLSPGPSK
UniProt P01106: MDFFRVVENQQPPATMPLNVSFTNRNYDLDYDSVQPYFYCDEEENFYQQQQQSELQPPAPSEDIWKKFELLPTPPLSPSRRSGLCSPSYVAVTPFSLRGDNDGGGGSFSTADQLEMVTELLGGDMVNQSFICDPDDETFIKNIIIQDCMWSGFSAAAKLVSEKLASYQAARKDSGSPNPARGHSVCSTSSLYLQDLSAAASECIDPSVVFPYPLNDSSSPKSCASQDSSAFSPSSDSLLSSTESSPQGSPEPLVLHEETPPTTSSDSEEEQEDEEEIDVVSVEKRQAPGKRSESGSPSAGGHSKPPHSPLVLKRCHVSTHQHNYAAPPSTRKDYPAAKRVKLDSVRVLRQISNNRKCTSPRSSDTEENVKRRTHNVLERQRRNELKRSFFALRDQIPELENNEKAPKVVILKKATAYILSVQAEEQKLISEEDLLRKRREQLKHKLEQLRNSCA
UniProt Q15796: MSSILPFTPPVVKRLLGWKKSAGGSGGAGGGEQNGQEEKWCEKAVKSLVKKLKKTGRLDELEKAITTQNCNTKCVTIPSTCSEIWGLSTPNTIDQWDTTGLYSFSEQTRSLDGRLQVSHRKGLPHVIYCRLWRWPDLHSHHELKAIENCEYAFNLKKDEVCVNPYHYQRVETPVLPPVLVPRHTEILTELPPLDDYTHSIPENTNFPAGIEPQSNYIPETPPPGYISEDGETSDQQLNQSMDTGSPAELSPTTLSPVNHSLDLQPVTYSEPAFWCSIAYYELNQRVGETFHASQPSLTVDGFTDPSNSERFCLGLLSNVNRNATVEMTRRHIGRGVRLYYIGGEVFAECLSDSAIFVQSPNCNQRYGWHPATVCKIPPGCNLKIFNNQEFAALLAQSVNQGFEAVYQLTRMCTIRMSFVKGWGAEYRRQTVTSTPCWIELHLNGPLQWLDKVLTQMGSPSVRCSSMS
UniProt P84022: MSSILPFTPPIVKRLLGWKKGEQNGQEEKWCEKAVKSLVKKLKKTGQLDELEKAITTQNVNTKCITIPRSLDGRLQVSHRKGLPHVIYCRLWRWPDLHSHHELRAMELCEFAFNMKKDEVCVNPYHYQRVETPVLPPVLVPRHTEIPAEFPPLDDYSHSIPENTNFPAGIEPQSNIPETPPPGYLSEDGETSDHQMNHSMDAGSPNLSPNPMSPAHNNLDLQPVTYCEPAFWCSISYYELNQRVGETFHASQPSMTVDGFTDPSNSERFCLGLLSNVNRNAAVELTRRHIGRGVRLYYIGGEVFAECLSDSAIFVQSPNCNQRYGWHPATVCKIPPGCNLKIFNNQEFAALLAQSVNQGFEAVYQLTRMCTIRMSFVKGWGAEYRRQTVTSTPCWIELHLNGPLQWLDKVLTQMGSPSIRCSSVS

How the values were obtained:
[1] = target: PIM1 (human (endogenous in ACHN and 786-O)) (UniProt P11309); experiment: co-IP; co-IP of PIM1 and c-Myc (Supplementary Figure 3A and B); precipitating antibody not given; protein G-Sepharose beads, overnight at 4 °C
[2] = target: PIM1 (human (endogenous in ACHN and 786-O)) (UniProt P11309); experiment: co-IP; endogenous PIM1 immunoprecipitated with an anti-PIM1 antibody (IgG control) from lysates of ACHN and 786-O cells with control-shRNA or PIM1shRNA; protein G-Sepharose beads, overnight at 4 °C; eluate blotted for p-Smad2 or p-Smad3

Row | Substance | binding [1] | binding [2]
1 | c-Myc (from UniProt P01106 1-454) | binds | 
2 | p-Smad2 (S467) (from UniProt Q15796 1-467) |  | binds
3 | p-Smad3 (S423 and S425) (from UniProt P84022 1-425) |  | binds
